{"source": "the supplement of paper PMC12067093", "about": "“Discovery and optimisation of a covalent ligand for TRIM25 and its application to targeted protein ubiquitination” (Chemical Science, 2025)", "assay_in_all_cases": "probe-labelled cysteine peptide fold change vs DMSO (competition) (log2 fold change); higher = less target engagement (more negative = stronger competition)", "settings_in_all_cases": "THP-1, incubation time: 4 h", "key": {"[1]": {"target": "HIVEP3_Q5T1R4_1369_GTTVCGADVHEVGPGPSGLSEEQSR (UniProt Q5T1R4)"}, "[2]": {"target": "HIVEP3_Q5T1R4_1756_YVCEECGIR (UniProt Q5T1R4)"}, "[3]": {"target": "HIVEP3_Q5T1R4_324_CSLSQSSTAQSLEDPPPFVEPSSEHPLSHKPEDTHTIK (UniProt Q5T1R4)"}}, "note": "This is one part of the list.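 Further: competitive chemoproteomic profiling in live THP-1 cells with an iodoacetamide desthiobiotin (IA-DTB) probe, comparing probe-labelled peptide intensities in compound-treated cells against DMSO-treated controls.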"}
{"smiles": "CC1Cc2ccccc2N1C(=O)C1CCCN(C(=O)CCl)C1", "note": "(mixture of isomers) [TRIM25 ligand 11 (diastereomer mixture)]", "values": [{"measurement": "probe-labelled cysteine peptide fold change", "setting": "[1]; 10 µM", "result": 0.0463}, {"measurement": "probe-labelled cysteine peptide fold change", "setting": "[1]; 50 µM", "result": -0.155}, {"measurement": "probe-labelled cysteine peptide fold change", "setting": "[2]; 10 µM", "result": 0.0586}, {"measurement": "probe-labelled cysteine peptide fold change", "setting": "[2]; 50 µM", "result": 0.0354}, {"measurement": "probe-labelled cysteine peptide fold change", "setting": "[3]; 10 µM", "result": 0.401}, {"measurement": "probe-labelled cysteine peptide fold change", "setting": "[3]; 50 µM", "result": 0.0467}]}
